Assay results as given in the supplement of paper PMC10849652.
Some of the results follow.

Protein sequences, listed by entry. Tags and fused reporters are not part of them. Lines headed by an entry give the natural chain unless they say otherwise; changes in a name come on top.
UniProt Q9H1I8: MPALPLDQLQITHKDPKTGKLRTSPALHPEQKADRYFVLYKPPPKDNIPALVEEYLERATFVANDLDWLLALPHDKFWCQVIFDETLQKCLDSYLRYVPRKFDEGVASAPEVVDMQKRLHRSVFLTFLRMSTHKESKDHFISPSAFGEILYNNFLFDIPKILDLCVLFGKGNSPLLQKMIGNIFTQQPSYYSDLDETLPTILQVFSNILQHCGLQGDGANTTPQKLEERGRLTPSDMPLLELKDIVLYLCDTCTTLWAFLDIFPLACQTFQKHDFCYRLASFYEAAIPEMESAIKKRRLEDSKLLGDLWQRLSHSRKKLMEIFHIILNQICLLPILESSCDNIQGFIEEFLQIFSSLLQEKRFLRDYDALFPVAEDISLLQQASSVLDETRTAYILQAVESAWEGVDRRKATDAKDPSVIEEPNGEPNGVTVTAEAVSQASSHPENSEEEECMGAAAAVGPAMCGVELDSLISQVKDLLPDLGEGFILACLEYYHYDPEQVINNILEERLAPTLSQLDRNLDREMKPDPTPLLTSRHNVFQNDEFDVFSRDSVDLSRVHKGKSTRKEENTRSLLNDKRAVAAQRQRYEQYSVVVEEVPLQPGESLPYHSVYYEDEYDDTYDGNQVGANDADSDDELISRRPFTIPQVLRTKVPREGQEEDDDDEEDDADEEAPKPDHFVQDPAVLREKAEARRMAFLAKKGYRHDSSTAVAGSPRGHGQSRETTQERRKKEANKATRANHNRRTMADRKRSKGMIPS
UniProt Q9H0Y0: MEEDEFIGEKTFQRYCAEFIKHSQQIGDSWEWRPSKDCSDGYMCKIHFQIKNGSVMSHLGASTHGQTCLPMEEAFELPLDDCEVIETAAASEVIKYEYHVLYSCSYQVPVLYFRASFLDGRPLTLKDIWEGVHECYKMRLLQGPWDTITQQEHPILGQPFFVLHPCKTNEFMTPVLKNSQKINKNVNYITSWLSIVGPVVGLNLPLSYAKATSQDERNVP
UniProt P35670: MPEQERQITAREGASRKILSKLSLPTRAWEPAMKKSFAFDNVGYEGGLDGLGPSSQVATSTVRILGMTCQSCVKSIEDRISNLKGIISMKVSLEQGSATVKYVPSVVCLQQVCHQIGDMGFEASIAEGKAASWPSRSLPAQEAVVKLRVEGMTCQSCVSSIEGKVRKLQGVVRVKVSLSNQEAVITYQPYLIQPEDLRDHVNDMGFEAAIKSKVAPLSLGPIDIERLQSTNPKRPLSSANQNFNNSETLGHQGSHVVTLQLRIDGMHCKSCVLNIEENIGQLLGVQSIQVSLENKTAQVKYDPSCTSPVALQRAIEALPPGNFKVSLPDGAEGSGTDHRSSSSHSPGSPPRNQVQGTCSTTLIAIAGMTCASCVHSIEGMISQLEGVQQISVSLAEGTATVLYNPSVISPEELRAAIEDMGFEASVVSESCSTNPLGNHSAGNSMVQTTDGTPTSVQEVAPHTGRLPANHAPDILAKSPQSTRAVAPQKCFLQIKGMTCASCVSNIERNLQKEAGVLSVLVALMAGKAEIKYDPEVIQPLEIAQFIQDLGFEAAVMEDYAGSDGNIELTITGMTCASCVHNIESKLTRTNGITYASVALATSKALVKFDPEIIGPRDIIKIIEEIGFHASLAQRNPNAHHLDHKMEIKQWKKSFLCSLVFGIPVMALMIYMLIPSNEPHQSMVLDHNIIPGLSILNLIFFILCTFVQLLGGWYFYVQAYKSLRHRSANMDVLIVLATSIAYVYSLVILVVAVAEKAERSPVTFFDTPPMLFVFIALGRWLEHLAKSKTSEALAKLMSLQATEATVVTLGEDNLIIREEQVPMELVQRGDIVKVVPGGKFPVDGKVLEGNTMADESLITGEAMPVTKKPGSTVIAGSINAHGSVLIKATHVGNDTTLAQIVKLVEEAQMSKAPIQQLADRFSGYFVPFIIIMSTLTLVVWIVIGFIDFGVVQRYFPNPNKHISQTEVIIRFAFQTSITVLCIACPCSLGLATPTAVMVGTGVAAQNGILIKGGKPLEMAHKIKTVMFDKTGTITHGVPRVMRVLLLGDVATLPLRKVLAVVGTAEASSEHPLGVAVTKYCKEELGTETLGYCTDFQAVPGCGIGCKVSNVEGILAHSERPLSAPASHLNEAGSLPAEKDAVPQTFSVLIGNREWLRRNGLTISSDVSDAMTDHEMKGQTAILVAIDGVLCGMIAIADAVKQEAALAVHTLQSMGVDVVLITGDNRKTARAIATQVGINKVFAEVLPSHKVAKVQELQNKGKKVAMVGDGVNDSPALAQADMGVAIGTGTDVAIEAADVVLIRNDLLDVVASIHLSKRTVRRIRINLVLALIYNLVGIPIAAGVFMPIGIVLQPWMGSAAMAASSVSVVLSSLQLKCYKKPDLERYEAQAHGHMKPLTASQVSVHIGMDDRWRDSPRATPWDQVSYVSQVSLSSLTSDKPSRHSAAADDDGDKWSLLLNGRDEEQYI
UniProt P18847: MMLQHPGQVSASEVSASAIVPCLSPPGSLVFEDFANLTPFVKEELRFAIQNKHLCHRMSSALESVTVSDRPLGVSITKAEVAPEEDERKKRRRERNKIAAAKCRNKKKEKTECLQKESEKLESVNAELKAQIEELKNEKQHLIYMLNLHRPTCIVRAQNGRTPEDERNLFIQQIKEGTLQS
UniProt P56385: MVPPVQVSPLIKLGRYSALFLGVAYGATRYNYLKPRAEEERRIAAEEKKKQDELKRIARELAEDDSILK
UniProt Q6UW56: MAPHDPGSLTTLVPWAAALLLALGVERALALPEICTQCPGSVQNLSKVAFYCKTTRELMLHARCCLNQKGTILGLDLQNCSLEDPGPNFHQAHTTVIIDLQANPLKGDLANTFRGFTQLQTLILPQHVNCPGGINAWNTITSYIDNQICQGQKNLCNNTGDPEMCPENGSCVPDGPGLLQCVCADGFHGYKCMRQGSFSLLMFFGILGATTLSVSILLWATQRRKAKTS
UniProt Q9H7T9: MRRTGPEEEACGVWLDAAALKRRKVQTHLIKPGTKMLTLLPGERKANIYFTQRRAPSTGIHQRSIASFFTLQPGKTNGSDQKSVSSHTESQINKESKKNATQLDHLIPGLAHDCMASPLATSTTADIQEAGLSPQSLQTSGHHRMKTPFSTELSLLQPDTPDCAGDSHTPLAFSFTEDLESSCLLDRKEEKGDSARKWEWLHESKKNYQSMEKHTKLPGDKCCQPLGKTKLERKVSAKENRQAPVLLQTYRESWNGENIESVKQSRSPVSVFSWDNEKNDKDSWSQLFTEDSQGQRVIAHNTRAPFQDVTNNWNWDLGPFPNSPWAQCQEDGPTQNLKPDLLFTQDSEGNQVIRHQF
UniProt Q13535: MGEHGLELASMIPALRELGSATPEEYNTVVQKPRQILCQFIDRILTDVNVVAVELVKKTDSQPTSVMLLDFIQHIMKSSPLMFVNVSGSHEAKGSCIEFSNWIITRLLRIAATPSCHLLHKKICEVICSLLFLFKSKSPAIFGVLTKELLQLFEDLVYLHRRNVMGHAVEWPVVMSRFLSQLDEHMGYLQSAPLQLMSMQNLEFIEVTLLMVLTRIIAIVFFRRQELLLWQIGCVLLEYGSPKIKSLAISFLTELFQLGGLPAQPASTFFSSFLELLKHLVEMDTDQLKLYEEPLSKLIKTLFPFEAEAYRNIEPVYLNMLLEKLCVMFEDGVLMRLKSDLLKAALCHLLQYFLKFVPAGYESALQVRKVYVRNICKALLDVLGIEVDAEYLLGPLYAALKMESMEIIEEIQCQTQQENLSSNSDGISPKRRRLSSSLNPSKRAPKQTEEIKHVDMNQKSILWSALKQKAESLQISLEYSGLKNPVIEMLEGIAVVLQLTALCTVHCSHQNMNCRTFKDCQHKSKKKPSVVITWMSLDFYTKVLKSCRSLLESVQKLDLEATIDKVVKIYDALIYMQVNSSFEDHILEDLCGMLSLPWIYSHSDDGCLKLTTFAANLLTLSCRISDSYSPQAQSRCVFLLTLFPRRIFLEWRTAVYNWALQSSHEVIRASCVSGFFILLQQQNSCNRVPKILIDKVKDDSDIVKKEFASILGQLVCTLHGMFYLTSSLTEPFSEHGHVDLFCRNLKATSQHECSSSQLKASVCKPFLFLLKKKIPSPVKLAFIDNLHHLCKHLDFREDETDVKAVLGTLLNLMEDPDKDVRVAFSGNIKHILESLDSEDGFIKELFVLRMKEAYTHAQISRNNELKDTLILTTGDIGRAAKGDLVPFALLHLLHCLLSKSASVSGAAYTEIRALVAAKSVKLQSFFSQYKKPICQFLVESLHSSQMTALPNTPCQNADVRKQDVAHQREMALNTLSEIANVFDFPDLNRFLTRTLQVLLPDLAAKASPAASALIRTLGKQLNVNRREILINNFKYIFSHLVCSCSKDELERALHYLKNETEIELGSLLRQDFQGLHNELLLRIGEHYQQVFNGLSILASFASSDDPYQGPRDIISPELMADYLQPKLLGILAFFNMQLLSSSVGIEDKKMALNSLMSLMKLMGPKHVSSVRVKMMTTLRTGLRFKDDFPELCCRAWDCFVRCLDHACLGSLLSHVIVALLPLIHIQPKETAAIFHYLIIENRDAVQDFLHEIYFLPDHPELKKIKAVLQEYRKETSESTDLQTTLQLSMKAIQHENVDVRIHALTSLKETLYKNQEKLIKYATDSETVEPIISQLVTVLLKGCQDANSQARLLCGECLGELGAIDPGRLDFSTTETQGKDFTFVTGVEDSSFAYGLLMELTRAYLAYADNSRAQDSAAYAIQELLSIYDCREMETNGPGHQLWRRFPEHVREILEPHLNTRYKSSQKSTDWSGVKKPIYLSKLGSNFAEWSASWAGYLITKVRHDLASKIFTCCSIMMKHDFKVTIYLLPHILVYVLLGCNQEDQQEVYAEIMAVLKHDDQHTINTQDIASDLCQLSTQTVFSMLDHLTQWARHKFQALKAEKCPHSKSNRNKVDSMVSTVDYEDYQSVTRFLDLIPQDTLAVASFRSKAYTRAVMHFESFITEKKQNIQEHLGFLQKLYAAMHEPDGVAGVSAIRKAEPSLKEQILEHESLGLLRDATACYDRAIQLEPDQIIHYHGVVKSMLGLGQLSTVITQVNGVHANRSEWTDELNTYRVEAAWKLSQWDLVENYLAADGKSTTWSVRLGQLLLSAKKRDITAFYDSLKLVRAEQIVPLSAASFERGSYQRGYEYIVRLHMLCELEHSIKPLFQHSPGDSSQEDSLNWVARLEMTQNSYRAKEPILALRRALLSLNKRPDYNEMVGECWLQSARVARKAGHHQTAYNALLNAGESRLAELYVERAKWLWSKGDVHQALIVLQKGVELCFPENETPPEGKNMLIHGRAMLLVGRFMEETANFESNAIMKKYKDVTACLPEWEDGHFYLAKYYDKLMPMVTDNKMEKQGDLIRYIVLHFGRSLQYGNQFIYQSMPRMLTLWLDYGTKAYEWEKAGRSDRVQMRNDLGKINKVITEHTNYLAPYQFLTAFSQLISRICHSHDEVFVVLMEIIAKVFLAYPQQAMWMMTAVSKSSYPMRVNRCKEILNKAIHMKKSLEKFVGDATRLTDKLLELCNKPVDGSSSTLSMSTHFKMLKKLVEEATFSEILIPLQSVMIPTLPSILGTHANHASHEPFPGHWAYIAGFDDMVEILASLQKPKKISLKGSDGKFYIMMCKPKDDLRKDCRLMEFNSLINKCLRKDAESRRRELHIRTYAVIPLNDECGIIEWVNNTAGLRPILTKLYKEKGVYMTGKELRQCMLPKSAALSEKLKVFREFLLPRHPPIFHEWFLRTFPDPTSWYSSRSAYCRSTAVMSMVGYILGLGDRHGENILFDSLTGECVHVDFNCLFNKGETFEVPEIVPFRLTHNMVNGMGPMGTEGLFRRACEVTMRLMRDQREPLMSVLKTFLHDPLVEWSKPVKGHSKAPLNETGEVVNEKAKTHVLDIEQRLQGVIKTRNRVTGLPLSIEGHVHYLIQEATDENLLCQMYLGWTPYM
UniProt Q7L266: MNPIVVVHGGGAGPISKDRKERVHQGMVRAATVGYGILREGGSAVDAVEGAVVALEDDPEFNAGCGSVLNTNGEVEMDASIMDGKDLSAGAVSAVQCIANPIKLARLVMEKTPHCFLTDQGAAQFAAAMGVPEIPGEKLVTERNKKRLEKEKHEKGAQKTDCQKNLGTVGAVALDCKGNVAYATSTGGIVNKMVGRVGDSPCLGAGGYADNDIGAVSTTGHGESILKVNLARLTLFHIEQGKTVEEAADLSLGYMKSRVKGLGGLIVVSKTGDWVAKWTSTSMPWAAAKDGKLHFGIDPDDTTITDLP
UniProt P18846: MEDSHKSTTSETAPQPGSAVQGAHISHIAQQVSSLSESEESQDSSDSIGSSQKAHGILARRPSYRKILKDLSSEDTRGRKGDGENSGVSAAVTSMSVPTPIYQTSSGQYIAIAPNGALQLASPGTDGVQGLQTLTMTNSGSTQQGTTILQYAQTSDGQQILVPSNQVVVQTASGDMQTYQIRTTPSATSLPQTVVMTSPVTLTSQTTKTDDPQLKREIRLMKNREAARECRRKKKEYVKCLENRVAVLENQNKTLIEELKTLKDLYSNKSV

Legend:
Experiment in all cases: log2 fold change, soluble protein after heating vs DMSO (PISA); higher = thermal stabilisation; K562 lysate, 10 uM; active = over 0.2 and 3.5 SD of the protein, either way, in both replicates (recomputed)
erlotinib = compound: C#Cc1cccc(Nc2ncnc3cc(OCCOC)c(OCCOC)cc23)c1 [erlotinib]
Outline: (§1)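 The values are log-two fold changes in thermal stability compared with solvent controls and come from duplicates. They were obtained by TMTpro 16plex LC-MS/MS, with channel sums equalised, on the supernatant after 21,000xg for 90 min. That supernatant came from crude K562 extract at 1 mg/mL protein treated with 10 μM compound for 30 min, heated for 3 min across 48°C-58°C, pooled and brought to 0.5% NP-40 at 4°C.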

[1] = compound: C/C(=N\NC(=O)C1=CC(=CC=C1)S(=O)(=O)N2CCOCC2)/C3=C(C=CC(=C3)Cl)O
Outline: as §1

[2] = compound: C1=CC(=CC=C1C2=NC3=C(N2)C=C(C=C3)C(=O)N)OC4=CC=C(C=C4)Cl
Outline: as §1

[3] = compound: C1=CC2=C(C=CC(=C2)/C=C\3/C(=O)NC(=NCC4=CC=CS4)S3)N=C1
Outline: as §1

[4] = compound: C1=CC2=NC=CN=C2C=C1/C=C/3\C(=O)NC(=O)S3
Outline: as §1

[5] = compound: C1=CC=C(C=C1)C2=NC(=C(N2)C3=CC=NC=C3)C4=CC(=C(C=C4)Cl)O
Outline: as §1

[6] = compound: C1=CC=C2C(=C1)C3=NNC4=CC=CC(=C43)C2=O
Outline: as §1

[7] = compound: C1CCN(C1)C(=O)NC2=CC=CC(=C2)NC3=NC=C(C(=N3)NCCC4=CN=CN4)Br
Outline: as §1

[8] = compound: C1CN(CCC1(CC2=CC=C(C=C2)Cl)N)C3=NC=NC4=C3C=CN4
Outline: as §1

IRAK-1-4 Inhibitor I = compound: C1COCCN1CCN2C3=CC=CC=C3N=C2NC(=O)C4=CC(=CC=C4)[N+](=O)[O-] [IRAK-1-4 Inhibitor I]
Outline: as §1

ibrutinib = compound: C=CC(=O)N1CCC[C@@H](n2nc(-c3ccc(Oc4ccccc4)cc3)c3c(N)ncnc32)C1 [ibrutinib]
Outline: as §1

[9] = compound: CC(=O)c1cnc2ccc(-c3cc(Cl)c(O)c(Cl)c3)nc2c1N[C@H]1CC[C@H](CN(C)C)CC1
Outline: as §1

ralimetinib = compound: CC(C)(C)Cn1c(N)nc2ccc(-c3[nH]c(C(C)(C)C)nc3-c3ccc(F)cc3)nc21 [ralimetinib]
Outline: as §1

[10] = compound: CC(C)(O)CC(=O)NCCn1ccc2ncnc(Nc3ccc(Oc4cccc(C(F)(F)F)c4)c(Cl)c3)c21
Outline: as §1

[11] = compound: CC(C)C1=C2N=C(C=C(N2N=C1)NCC3=CC=CC=C3)NCCCCCCN
Outline: as §1

[12] = compound: CC1=C(C(CC(=O)N1)C2=CC=C(C=C2)C(F)(F)F)C(=O)NC3=C(C=C4C(=C3)C=NN4)F
Outline: as §1

[13] = compound: CC1=C(C2=C(C=C1)C(=O)C3=CC=CC=C3N2CCCN)C
Outline: as §1

[14] = compound: CC1=C(C=C(C=C1)NC(=O)C2=CC(=CC=C2)C(C)(C)C#N)NC3=CC4=C(C=C3)N=CN(C4=O)C
Outline: as §1

[15] = compound: CC1=C(C=C(C=C1)NC(=O)C2=CC(=CC=C2)N(C)C)NC(=O)C3=CC=C(C=C3)O
Outline: as §1

[16] = compound: CC1=CC=C(C=C1)SC2=C3C=C(SC3=CN=C2)C(=O)N
Outline: as §1

Target | log2 fold change (erlotinib) | log2 fold change [1] | log2 fold change [2] | log2 fold change [3] | log2 fold change [4] | log2 fold change [5] | log2 fold change [6] | log2 fold change [7] | log2 fold change [8] | log2 fold change (IRAK-1-4 Inhibitor I) | log2 fold change (ibrutinib) | log2 fold change [9] | log2 fold change (ralimetinib) | log2 fold change [10] | log2 fold change [11] | log2 fold change [12] | log2 fold change [13] | log2 fold change [14] | log2 fold change [15] | log2 fold change [16]
ASCC2 (UniProt Q9H1I8) | inactive: 0.04 | inactive: -0.106 | inactive: -0.077 | inactive: 0.083 | inactive: 0.029 | inactive: -0.016 | inactive: -0.048 | inactive: -0.054 | inactive: 0.037 | inactive: -0.042 | active: -0.328 | inactive: 0.029 | inactive: 0.057 | inactive: -0.041 | inactive: 0.012 | inactive: 0.004 | inactive: 0.02 | inactive: 0.01 | inactive: 0.064 | inactive: -0.01
AURKB isoform 5 (UniProt Q96GD4) | inactive: 0.05 | inactive: -0.091 | inactive: -0.047 | inactive: -0.009 | inactive: -0.035 |  | inactive: 0.531 | inactive: -0.063 | inactive: -0.178 |  | inactive: -0.087 |  |  |  | inactive: 0.079 | inactive: -0.042 | inactive: -0.147 | inactive: -0.046 |  | 
ATXN2 (UniProt F8WB05) | inactive: 0.073 | inactive: -0.082 | inactive: 0.09 | inactive: -0.191 | inactive: -0.063 | inactive: -0.011 | inactive: -0.083 | inactive: -0.036 | inactive: 0.055 | inactive: -0.157 | inactive: -0.538 | inactive: -0.104 | inactive: 0 | inactive: 0.033 | inactive: 0.037 |  | inactive: 0.006 | inactive: 0.119 | inactive: -0.044 | inactive: 0.048
ATG10 (UniProt Q9H0Y0) | inactive: 0.062 | inactive: 0.043 | inactive: -0.011 | inactive: -0.012 | inactive: -0.01 | inactive: 0.035 | inactive: 0.086 | inactive: -0.004 | inactive: -0.004 | inactive: 0.022 | inactive: 0.057 |  | inactive: 0.001 | inactive: -0.013 | inactive: -0.062 | inactive: -0.132 | inactive: 0.063 | inactive: 0.053 | inactive: 0.012 | 
ATP7B (UniProt P35670) | inactive: 0.015 | inactive: -0.118 | inactive: 0.021 | inactive: -0.004 | inactive: -0.009 |  | inactive: -0.047 | inactive: 0.052 | inactive: -0.051 |  | inactive: 0.025 | inactive: -0.031 |  |  | inactive: 0.034 | inactive: -0.015 | inactive: -0.075 | inactive: 0.001 |  | inactive: -0.01
B3GNT5 (UniProt Q9BYG0) | inactive: -0.02 | inactive: 0.171 | inactive: -0.159 | inactive: 0.026 | inactive: -0.084 | inactive: 0.068 | inactive: -0.159 | inactive: 0.107 | inactive: 0.073 | inactive: 0.183 | inactive: -0.034 | inactive: 0.033 | inactive: 0.034 | inactive: -0.044 | inactive: 0.132 |  | inactive: 0.001 |  | inactive: 0.153 | inactive: -0.161
ATF3 (UniProt P18847) | inactive: -0.158 | inactive: 0.007 | inactive: -0.263 | inactive: -0.124 |  | inactive: 0.031 | inactive: 0.049 | inactive: 0.051 | inactive: 0.131 | inactive: -0.03 |  |  | inactive: 0.009 | inactive: -0.06 | inactive: 0.015 | inactive: -0.048 | inactive: -0.042 | inactive: 0.105 | inactive: 0.045 | 
ATP5ME (UniProt P56385) | inactive: 0 | inactive: -0.039 | inactive: 0.001 | inactive: -0.003 | inactive: 0.029 | inactive: -0.037 | inactive: 0.01 | inactive: 0.004 | inactive: 0.058 | inactive: 0.006 | inactive: 0.009 | inactive: -0.021 | inactive: 0.024 | inactive: -0.037 | inactive: -0.037 | inactive: -0.028 | inactive: -0.037 | inactive: 0.039 | inactive: -0.03 | inactive: -0.045
ATRAID isoform 3 (UniProt Q6UW56) | inactive: 0.041 | inactive: -0.044 | inactive: 0.117 | inactive: -0.014 |  | inactive: 0.059 | inactive: -0.091 | inactive: 0.069 | inactive: 0.015 | inactive: -0.029 |  | inactive: -0.042 | inactive: -0.009 | inactive: -0.031 | inactive: -0.026 | inactive: -0.011 | inactive: 0.06 | inactive: 0.043 | inactive: -0.002 | inactive: -0.046
AUNIP isoform 2 (UniProt Q9H7T9) | inactive: 0.062 | inactive: -0.037 | inactive: -0.017 | inactive: 0.004 | inactive: -0.088 | inactive: 0.092 | inactive: 0.024 | inactive: -0.006 | inactive: 0.028 | inactive: 0.006 | inactive: -0.058 |  | inactive: -0.021 | inactive: 0.112 | inactive: 0.007 |  | inactive: 0.039 | inactive: 0.103 | inactive: -0.026 | 
ATR (UniProt Q13535) | inactive: -0.025 | inactive: -0.012 | inactive: -0.055 | inactive: 0.336 | inactive: 0.255 | inactive: 0.125 | inactive: 0.071 | inactive: -0.005 | inactive: 0.125 | inactive: -0.025 | inactive: 0.06 | inactive: 0.319 | inactive: 0 | inactive: -0.037 | inactive: 0.016 | inactive: -0.015 | inactive: -0.031 | inactive: 0.032 | inactive: 0.039 | inactive: -0.053
ASRGL1 (UniProt Q7L266) | inactive: -0.032 | inactive: 0.021 | inactive: 0.028 | inactive: -0.051 | inactive: -0.051 | inactive: -0.008 | inactive: 0.001 | inactive: 0.022 | inactive: 0.025 | inactive: 0.035 | inactive: 0.065 | inactive: 0.014 | inactive: 0.057 | inactive: -0.009 | inactive: 0.007 | inactive: 0.018 | inactive: 0.011 | inactive: 0.011 | inactive: -0.04 | inactive: 0.004
AVEN (UniProt Q9NQS1) | inactive: 0.111 | inactive: 0.077 | inactive: -0.205 | inactive: -0.079 | inactive: 0.183 | inactive: 0.06 | inactive: 0.055 | inactive: -0.023 | inactive: -0.013 | inactive: -0.096 | inactive: -0.03 |  | inactive: -0.061 | inactive: -0.079 | inactive: 0.055 | inactive: 0.009 | inactive: 0.027 | inactive: 0.1 | inactive: -0.08 | 
ATF7IP2 (UniProt Q5U623) | inactive: 0.012 | inactive: -0.034 | inactive: 0.086 | inactive: 0.026 | inactive: -0.069 | inactive: -0.027 | inactive: -0.132 |  |  | inactive: 0.027 | inactive: 0.054 | inactive: -0.03 | inactive: 0.045 | inactive: -0.201 | inactive: 0.058 | inactive: -0.056 |  | inactive: 0.097 | inactive: -0.04 | inactive: -0.088
ATF1 (UniProt P18846) | inactive: -0.04 |  | inactive: 0.048 |  | inactive: -0.055 | inactive: 0.022 |  | inactive: -0.085 | inactive: 0.199 | inactive: -0.06 | inactive: -0.039 | inactive: 0.019 | inactive: -0.08 | inactive: -0.046 | inactive: -0.038 | inactive: 0.01 | inactive: -0.007 | inactive: 0.024 | inactive: 0.033 | inactive: -0.032
ASPM (UniProt Q8IZT6) | inactive: -0.044 | inactive: -0.078 | inactive: -0.006 | inactive: -0.017 |  | inactive: -0.009 | inactive: 0.069 | inactive: 0.03 | inactive: 0.068 | inactive: -0.081 |  | inactive: 0.02 | inactive: 0.04 | inactive: -0.005 | inactive: -0.051 | inactive: 0 | inactive: -0.021 | inactive: -0.07 | inactive: -0.026 | inactive: 0.021

2 consecutive records already listed, quoted:
Target | log2 fold change (erlotinib) | log2 fold change [1] | log2 fold change [2] | log2 fold change [3] | log2 fold change [4] | log2 fold change [5] | log2 fold change [6] | log2 fold change [7] | log2 fold change [8] | log2 fold change (IRAK-1-4 Inhibitor I) | log2 fold change (ibrutinib) | log2 fold change [9] | log2 fold change (ralimetinib) | log2 fold change [10] | log2 fold change [11] | log2 fold change [12] | log2 fold change [13] | log2 fold change [14] | log2 fold change [15] | log2 fold change [16]
ASCC2 (UniProt Q9H1I8) | inactive: 0.04 | inactive: -0.106 | inactive: -0.077 | inactive: 0.083 | inactive: 0.029 | inactive: -0.016 | inactive: -0.048 | inactive: -0.054 | inactive: 0.037 | inactive: -0.042 | active: -0.328 | inactive: 0.029 | inactive: 0.057 | inactive: -0.041 | inactive: 0.012 | inactive: 0.004 | inactive: 0.02 | inactive: 0.01 | inactive: 0.064 | inactive: -0.01
AURKB isoform 5 (UniProt Q96GD4) | inactive: 0.05 | inactive: -0.091 | inactive: -0.047 | inactive: -0.009 | inactive: -0.035 |  | inactive: 0.531 | inactive: -0.063 | inactive: -0.178 |  | inactive: -0.087 |  |  |  | inactive: 0.079 | inactive: -0.042 | inactive: -0.147 | inactive: -0.046 |  | 
